According to publication doi:10.1101/335273:
Results are given in words; binding and its absence hold for the method and conditions named. In cells and extracts the contact can be indirect. Some results given as binding are weak or reduced against the parent protein; the word gives no strength.

Sequences of proteins named here, by UniProt entry; tags and fusion partners are left off. A line that says so, or that is headed by a name, gives the form on record, which may keep a tag or linker. Residues count along the entry.
HCV non-structural protein 3 (NS3), JFH1, in sgJFH1-NS5A.HA replicon cells (Q99IB8, residues 1031-1661): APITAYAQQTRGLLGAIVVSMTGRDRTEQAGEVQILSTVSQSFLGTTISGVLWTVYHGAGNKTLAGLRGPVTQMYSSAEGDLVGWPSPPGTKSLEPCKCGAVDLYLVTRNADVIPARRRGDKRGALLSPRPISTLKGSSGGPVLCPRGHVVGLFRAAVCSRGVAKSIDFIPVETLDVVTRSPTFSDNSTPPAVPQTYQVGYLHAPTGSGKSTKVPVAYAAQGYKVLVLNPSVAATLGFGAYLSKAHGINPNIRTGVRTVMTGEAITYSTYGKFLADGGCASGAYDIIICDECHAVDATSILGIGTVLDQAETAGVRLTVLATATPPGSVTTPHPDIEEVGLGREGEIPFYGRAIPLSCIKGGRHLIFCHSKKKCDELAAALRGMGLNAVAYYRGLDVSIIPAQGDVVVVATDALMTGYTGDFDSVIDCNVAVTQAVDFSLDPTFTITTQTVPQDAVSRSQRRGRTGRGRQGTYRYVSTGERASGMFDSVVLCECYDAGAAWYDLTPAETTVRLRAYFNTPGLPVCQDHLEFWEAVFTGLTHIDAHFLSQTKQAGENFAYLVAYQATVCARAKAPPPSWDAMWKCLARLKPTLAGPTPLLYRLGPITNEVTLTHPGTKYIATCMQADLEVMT
HA-tagged HCV NS5A, JFH1, in sgJFH1-NS5A.HA replicon cells (Hepatitis C virus genotype 2a (JFH1)) (Q99IB8, residues 1977-2442): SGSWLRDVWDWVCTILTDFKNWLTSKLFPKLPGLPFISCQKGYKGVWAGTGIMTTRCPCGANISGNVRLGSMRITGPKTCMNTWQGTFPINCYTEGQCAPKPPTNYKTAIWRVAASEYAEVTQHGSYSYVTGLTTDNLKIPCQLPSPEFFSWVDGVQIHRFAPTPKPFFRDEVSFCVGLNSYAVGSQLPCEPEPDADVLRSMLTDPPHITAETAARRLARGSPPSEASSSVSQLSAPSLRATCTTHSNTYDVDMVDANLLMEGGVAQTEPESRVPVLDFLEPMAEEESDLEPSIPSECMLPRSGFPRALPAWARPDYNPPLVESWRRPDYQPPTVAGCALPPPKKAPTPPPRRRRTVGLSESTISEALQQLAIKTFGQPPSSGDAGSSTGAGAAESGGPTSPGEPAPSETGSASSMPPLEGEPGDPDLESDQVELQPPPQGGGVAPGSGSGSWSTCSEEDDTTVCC

Molecular target: HA-tagged HCV NS5A, JFH1, in sgJFH1-NS5A.HA replicon cells (Hepatitis C virus genotype 2a (JFH1)) (UniProt Q99IB8)
Test: co-IP

For “HCV non-structural protein 3 (NS3), JFH1, in sgJFH1-NS5A.HA replicon cells (from UniProt Q99IB8 1031-1661)”, the binding was “binds”.
